Measured values published in patent US20110163045A1, “METHOD AND SYSTEM FOR TREATING CONTAMINATED WATER” (Ramot at Tel-Aviv University Ltd., priority 2008, published 2011).
At least one structure is not confirmed: it was looked up by name or label, or the drawing left a doubt. Some results were stated once for a whole list of compounds, not compound by compound.

Experiment: Direct UV photolytic degradation of single contaminants in deionized water (collimated beam MP Hg lamp, HPLC/MS/MS)
Assay type: physicochemical
Conditions: for Reduction in UV dose: least favorable tested pH vs optimal pH, deionized water
Experimental: Solutions of tested contaminants were prepared by dissolving one or more contaminant in 150 ml deionized water (DI) at a concentration of 1 mg/l for each contaminant. The solution was then placed into an open 90×50 mm crystallization dish. […] No. 7830-61, from Ace Glass Inc.) housed in a bench scale collimated beam apparatus. […] 0.5 ml samples were removed from the irradiated solution at selected time intervals in order to measure the concentration of the remaining contaminant. Samples were measured in a 1100-Finnigan LCQ HPLC/MS/MS (high performance liquid chromatography/tandem mass spectrometry) apparatus (Agilent), in order to obtain a chromatogram for the sample. The concentration was expressed as the area of the peak observed in the HPLC/MS/MS chromatogram. The degradation kinetics were expressed as a logarithm of the ratio of the concentration (CH) remaining following a dose H of irradiation to initial concentration (C0). Such a logarithm decreased in a linear manner as a function of the dose, as follows: […] The data were fitted using a linear regression approach (with R^2>0.9) resulting in pseudo-first order reaction kinetics which reflect the difference in photodegradation between samples.

| Compound | Optimal pH for photodegradation (UV direct photolysis) | Reduction in UV dose [%] |
| --- | --- | --- |
| CCn1cc(C(=O)O)c(=O)c2cc(F)c(N3CCNCC3)cc21 [NOR, norfloxacin] | 7-8 | – |
| CN(C)[C@@H]1C(O)=C(C(N)=O)C(=O)[C@@]2(O)C(O)=C3C(=O)c4c(O)cccc4[C@@](C)(O)[C@H]3[C@H](O)[C@@H]12 [OTC, oxytetracycline] | – | 71.4 |
| CN(C)[C@@H]1C(O)=C(C(N)=O)C(=O)[C@@]2(O)C(O)=C3C(=O)c4c(O)cccc4[C@@](C)(O)[C@H]3C[C@@H]12 [TC, Tetracycline] | – | 85.0 |
